# Test results from PubChem BioAssay AID1508615 (Milbrandt Lab, Department of Genetics, Washington …, 2020).
# Amino acid sequences for entries named in this document (tags omitted). A change or cut given only in a name is not applied to a line headed by its entry.
# UniProt Q6SZW1: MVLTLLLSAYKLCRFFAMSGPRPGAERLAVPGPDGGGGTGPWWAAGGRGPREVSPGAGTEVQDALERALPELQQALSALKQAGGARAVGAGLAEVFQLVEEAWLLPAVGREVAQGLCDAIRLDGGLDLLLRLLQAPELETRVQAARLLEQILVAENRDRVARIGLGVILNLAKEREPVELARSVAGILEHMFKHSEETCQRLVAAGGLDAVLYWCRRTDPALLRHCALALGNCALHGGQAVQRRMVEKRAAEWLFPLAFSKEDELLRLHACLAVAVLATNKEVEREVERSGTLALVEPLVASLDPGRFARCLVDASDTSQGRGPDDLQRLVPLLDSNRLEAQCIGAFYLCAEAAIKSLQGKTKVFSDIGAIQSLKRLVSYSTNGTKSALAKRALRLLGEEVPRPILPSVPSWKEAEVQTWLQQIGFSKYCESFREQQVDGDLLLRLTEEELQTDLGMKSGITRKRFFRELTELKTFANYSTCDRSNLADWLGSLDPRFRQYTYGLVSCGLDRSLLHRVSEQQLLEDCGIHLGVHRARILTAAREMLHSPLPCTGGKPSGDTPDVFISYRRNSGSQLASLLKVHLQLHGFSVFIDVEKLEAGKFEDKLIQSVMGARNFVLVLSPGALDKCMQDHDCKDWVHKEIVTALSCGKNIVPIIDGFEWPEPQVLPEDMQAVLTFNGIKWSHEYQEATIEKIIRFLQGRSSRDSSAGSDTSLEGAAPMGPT
# Among all 1,600 compounds or so, about 20 (1%) were called active.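 The calls were made as follows: active = ratio of uncleaved NAD to its breakdown product ADP-ribose above 4, meaning the enzyme was inhibited; inactive = the rest.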 The list shows a part of the results.
# Target: NAD(+) hydrolase SARM1 (Homo sapiens) (UniProt Q6SZW1)
# Experiment: SARM1 TIR NADase inhibitors by HPLC, primary screen, cell lysate, HPLC readout (AID 1508615);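 also: substrate NAD at 5 µM with 60 min at 37 °C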
# Conditions: HEK293T SAM-TIR lysate, at 5 µM, hits give high values
row,SMILES,NAD/ADPR ratio
1,CC(C)NC1C2CCC(CC2)C1(O)c1ccc(Cl)c(Cl)c1 (stereo not given),inactive: 3
2,COC1CC2\C=C(C)/C=C/C=C\C(=O)NC(c3ccccc3)C/C=C/CCC(O)CC(=O)C2=C1O (stereo not given),inactive: 3
3,CN1C(=O)NC(=O)C(N=Nc2ccc(Cl)cc2)C1=O (stereo not given),inactive: 3
4,COc1ccc2c(c1)C13CCN(C)C(C2)C1CCC1(C3)OCCO1 (stereo not given),inactive: 3
5,C=CCN1CC[C@]23c4c5ccc(O)c4OC2C(=O)CC[C@@]3(O)C1C5 (stereo not given in full),inactive: 3
6,O=C(NCCCN1CC1)Nc1cccc2ccccc12,inactive: 3
7,N#CC(C#N)=Cc1ccc(C=C(C#N)C#N)cc1,inactive: 3
8,COc1ccc2c(c1O)[C@]13CCN(C)[C@H](C2)[C@@H]1CCC(=O)C3,inactive: 3
9,C=CCNC(=S)Nc1ccc(OC(=O)Nc2ccc(Cl)c(Cl)c2)cc1,inactive: 3
10,c1cc(C2N3CCCN2CC3)ccn1 (stereo not given),inactive: 3
11,Cc1c2ccncc2c(C)c2c1[nH]c1ccccc12,inactive: 3
12,CC[C@@]1(O)C(=O)OCc2c1cc1n(c2=O)Cc2cc3c(NC(=O)CN)cccc3nc2-1,inactive: 3
13,Oc1cccc2nc3ccccc3nc12,inactive: 3
14,CN1CCC(c2c[nH]c3ccccc23)C1 (stereo not given),inactive: 3
15,CCC(N)Cc1c[nH]c2ccccc12 (stereo not given),inactive: 3
16,C=C1C(=O)OC2CC3(C)OC3CC/C(C)=C\C(OC(C)=O)C12 (stereo not given),inactive: 3
17,O=C1CCC2(O)[C@@H]3Cc4ccc(O)c5c4[C@]2(CCN3Cc2ccoc2)C1O5 (stereo not given in full),inactive: 3
18,COc1ccccc1[As](=O)(O)CC(O)COc1ccc(Cl)cc1Cl (stereo not given),inactive: 3
19,CC1=CC(O)C(O)C2(C)C1CC1OC(=O)C(O)C3C(C)C(O)C4(O)OCC13C42 (stereo not given),inactive: 3
20,O=C(OC1CCCCC1)c1ccccc1C(=O)OC1CCCCC1,inactive: 3
21,Cc1ccccc1NC(=O)NCCN1CC1,inactive: 3
22,Cc1ccccc1-n1c(/C=C/c2ccccn2)nc2ccccc2c1=O,inactive: 3
23,COc1cc(OC)cc(C2(C#N)CCN(C)CC2)c1,inactive: 3
24,CC1(C)NC(=S)C(C)(C)N1N=O,inactive: 3

# Laid out differently: entries from further up
row	SMILES	NAD/ADPR ratio
2	COC1CC2\C=C(C)/C=C/C=C\C(=O)NC(c3ccccc3)C/C=C/CCC(O)CC(=O)C2=C1O (stereo not given)	inactive: 3
11	Cc1c2ccncc2c(C)c2c1[nH]c1ccccc12	inactive: 3
20	O=C(OC1CCCCC1)c1ccccc1C(=O)OC1CCCCC1	inactive: 3

# In the list so far, these have sulfur:
row,SMILES,NAD/ADPR ratio
9,C=CCNC(=S)Nc1ccc(OC(=O)Nc2ccc(Cl)c(Cl)c2)cc1,inactive: 3
24,CC1(C)NC(=S)C(C)(C)N1N=O,inactive: 3

# Additional compounds.

row,SMILES,NAD/ADPR ratio
1,CCc1cc2c(cc1-c1csc(C/C(N)=N/O)n1)C(C)(C)CCC2(C)C,inactive: 3
2,O=C1NC(=O)C(=Cc2ccc3ccccc3c2)C(=O)N1,inactive: 3
3,O=C1CCCN1CC#CCN1CCCC1,inactive: 3
4,Cc1ccc2c(c1)Oc1ccccc1N=C2,inactive: 3
5,CC(C)(C)n1cc(C(=O)c2ccccc2)cc1-c1ccccc1,inactive: 3
6,O=[As](O)(O)c1ccc(N=Nc2ccc(O)cc2)cc1,inactive: 3
7,CN1C2CCC1C(COC(=O)c1ccccc1)C(O)C2 (stereo not given),inactive: 3
8,CN1CCN(c2nc(N)c(Br)c(Cl)n2)CC1,inactive: 3
9,CN1CCc2cc3c(cc2C1)OCO3,inactive: 3
10,CN1CCN(c2ccc([N+](=O)[O-])c3no[n+]([O-])c23)CC1,inactive: 3
11,CC[C@@]1(O)C(=O)OCc2c1cc1n(c2=O)Cc2cc3ccccc3nc2-1,inactive: 3
12,CC1C(C)N1CC(O)Cn1ccnc1[N+](=O)[O-] (stereo not given),inactive: 3
13,COc1c(OP2(=S)OCC(C)(C)CO2)cnn(C2CCCCC2)c1=O,inactive: 3
14,CC1=C(O)C(=O)C=C2C1=CC=C1[C@@]2(C)CC[C@@]2(C)[C@@H]3C[C@](C)(C(=O)O)CC[C@]3(C)CC[C@]12C,active: 12.8
15,O=P(Oc1ccccc1)(Oc1ccccc1)c1ccccc1,inactive: 3
16,CC(=O)OC1CCC2(C)C(CCC3C2CC(=O)C2(C)C3CC(N3CC3)C2C(C)=O)C1 (stereo not given),inactive: 3
17,c1ccc2nc(OCCN3CC3)ccc2c1,inactive: 3
18,C=CCCC1(C2=CCCCC2)C(=O)NC(=O)NC1=O,inactive: 3
19,CNC(=O)Oc1c(C)[nH]ccc1=O,inactive: 3
20,O=S(=O)(F)c1ccc2nc(-c3cccc(Sc4ccccc4)c3)cc(Cl)c2c1,inactive: 3
21,COc1ccc(C2=CC(c3ccc(OC)c(OC)c3)c3c(c4ccccc4oc3=O)O2)cc1OC (stereo not given),inactive: 3
22,CC(C)OC1CCCC(O)C1CC(=O)O (stereo not given),inactive: 3
23,COC(=O)c1nc(-c2ccc3c(n2)C(=O)C(N)=C(OC)C3=O)c(N)c(-c2ccc(OC)c(OC)c2O)c1C,inactive: 3
24,OCC1CN1C1CCCCC1 (stereo not given),inactive: 3

row,SMILES,NAD/ADPR ratio
1,Cc1ccc(-n2c(O)c(C=N)c(=O)n(-c3ccc(C)cc3)c2=O)cc1,inactive: 3
2,CC(Cc1ccccc1)NC(N)=O (stereo not given),inactive: 3
3,COc1cccc2c1C(=O)c1c(O)c3c(c(O)c1C2=O)CC(O)(C(C)=NO)CC3OC1CC(N)C(O)C(C)O1 (stereo not given),inactive: 3
4,O=[N+]([O-])c1cc(-c2ccc([As](=O)(O)O)cc2)ccc1[As](=O)(O)O,inactive: 3
5,CC12CCC3C(CC=C4CC(O)CCC43C)C1C/C(=C\N1CCCC1)C2=O (stereo not given),inactive: 3
6,C/C=C(/C)C(=O)O[C@H]1CCN2CC=C(COC(=O)[C@@](O)([C@H](C)OC)C(C)(C)O)[C@H]12,inactive: 3
7,Cc1ncc([N+](=O)[O-])n1CCOC(N)=O,inactive: 3
8,CCC1CN1P1(=O)OCC(C)([N+](=O)[O-])CO1 (stereo not given),inactive: 3
9,O=[N+]([O-])c1oc2ccc3ccccc3c2c1CCO,inactive: 3
10,c1ccc2c(c1)Sc1ccccc1N2CC1CN2CCC1CC2 (stereo not given),inactive: 3
11,CNC(=O)Oc1ccc(N(C)C)cc1C(C)C,inactive: 3
12,CC12CCC3c4ccc(OC(=O)N(CCCl)CCCl)cc4CCC3C1CCC2O (stereo not given),inactive: 3
13,NC(=O)c1ccc(C(=O)Nc2ccc([As](=O)(O)O)cc2)cc1,inactive: 3
14,CSc1nc(C)c(Br)c(N2CC2)n1,inactive: 3
15,COC(=O)C1C(O)C(C)C(O)C(C)/C=C\C=C(/C)C(=O)Nc2c(C)c(OC(C)=O)c3c(c2O)C(=O)C(C)=C2OCOC(=C23)/C(C)=C/C(C)(O)C(O)C(C)C1O (stereo not given),inactive: 3
16,CCN1CC2C3CCC(C)(O3)C2C1 (stereo not given),inactive: 3
17,C[C@H]1CC[C@H]2NCCN[C@H]2C1,inactive: 3
18,C=Cc1cc(OC)c2c(c1)c(=O)oc1c2cc(OC)c2c(O)ccc(C3OC(C)C(O)C(C)(O)C3O)c21 (stereo not given),inactive: 3
19,CC(=O)Nc1cccc([As](=O)(c2cccc(NC(C)=O)c2)c2cccc(NC(C)=O)c2)c1,inactive: 3
20,CC1Oc2cc3c(-c4c(O)cc(O)c5c(O)c6c(cc45)OC(C)C(C)C6=O)c(O)cc(O)c3c(O)c2C(=O)C1C (stereo not given),inactive: 3
21,O=C1NC(=O)C(=Cc2csc3ccccc23)C(=O)N1,inactive: 3
22,CCC1CCC(C)N(N=O)C1 (stereo not given),inactive: 3
